The results in this text go back to PMC6057933.

Chains of the proteins cited; added tags and fusions are not shown. Lines headed by an entry give the natural chain unless they say otherwise; changes in a name come on top.
UniProt Q6GPH4: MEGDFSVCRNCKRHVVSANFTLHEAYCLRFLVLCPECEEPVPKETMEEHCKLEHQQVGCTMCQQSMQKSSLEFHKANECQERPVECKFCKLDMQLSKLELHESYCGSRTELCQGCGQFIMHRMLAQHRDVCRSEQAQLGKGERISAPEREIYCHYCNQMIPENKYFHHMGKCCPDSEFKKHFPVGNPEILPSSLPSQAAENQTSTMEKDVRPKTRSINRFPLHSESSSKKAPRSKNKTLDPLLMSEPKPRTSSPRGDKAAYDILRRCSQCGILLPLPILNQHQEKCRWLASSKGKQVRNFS

No constants are given. Whether binding was seen depends on the method and setting.

This assay concerns the target T1, IRF-1 in the cells of the transfection experiments (human) (UniProt P10914).
T1 sequence: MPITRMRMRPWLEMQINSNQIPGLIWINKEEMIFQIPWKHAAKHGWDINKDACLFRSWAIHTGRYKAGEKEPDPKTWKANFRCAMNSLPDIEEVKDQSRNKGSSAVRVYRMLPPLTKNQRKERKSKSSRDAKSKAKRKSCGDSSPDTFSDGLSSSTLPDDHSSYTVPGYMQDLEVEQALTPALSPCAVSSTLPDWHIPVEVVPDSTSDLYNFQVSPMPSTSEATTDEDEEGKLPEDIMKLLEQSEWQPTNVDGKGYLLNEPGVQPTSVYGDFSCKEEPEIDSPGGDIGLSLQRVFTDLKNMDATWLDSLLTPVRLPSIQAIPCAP
Kind of assay: sequential ChIP; cell lysates precipitated with anti-IRF-1 antibody, the resulting complexes precipitated with anti-XAF1 antibody; PCR of the IRFE region of the PUMA promoter.

On to ΔZF6-XAF1 (from UniProt Q6GPH4), for which the binding result was “no binding”.
